From paper PMC7145659
Results are given in words; binding and its absence hold for the method and conditions named. In cells and extracts the contact can be indirect. Some binding calls cover weakened binding; strength is not graded here.

Sequences of proteins named here, by UniProt entry; tags and fusion partners are left off.
UniProt P54578: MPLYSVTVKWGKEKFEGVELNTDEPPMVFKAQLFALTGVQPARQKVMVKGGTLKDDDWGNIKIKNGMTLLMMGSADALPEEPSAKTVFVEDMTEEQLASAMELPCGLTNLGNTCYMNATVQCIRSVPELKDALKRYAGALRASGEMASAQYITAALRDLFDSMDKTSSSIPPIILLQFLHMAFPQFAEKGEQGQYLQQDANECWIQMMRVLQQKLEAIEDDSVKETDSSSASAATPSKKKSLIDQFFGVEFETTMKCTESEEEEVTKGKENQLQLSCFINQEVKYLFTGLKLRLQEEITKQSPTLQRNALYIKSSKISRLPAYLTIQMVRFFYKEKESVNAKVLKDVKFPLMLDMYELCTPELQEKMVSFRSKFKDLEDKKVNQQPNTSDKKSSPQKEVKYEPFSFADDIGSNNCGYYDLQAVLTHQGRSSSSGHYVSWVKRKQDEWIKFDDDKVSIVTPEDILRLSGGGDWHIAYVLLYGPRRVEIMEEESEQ
UniProt P12956: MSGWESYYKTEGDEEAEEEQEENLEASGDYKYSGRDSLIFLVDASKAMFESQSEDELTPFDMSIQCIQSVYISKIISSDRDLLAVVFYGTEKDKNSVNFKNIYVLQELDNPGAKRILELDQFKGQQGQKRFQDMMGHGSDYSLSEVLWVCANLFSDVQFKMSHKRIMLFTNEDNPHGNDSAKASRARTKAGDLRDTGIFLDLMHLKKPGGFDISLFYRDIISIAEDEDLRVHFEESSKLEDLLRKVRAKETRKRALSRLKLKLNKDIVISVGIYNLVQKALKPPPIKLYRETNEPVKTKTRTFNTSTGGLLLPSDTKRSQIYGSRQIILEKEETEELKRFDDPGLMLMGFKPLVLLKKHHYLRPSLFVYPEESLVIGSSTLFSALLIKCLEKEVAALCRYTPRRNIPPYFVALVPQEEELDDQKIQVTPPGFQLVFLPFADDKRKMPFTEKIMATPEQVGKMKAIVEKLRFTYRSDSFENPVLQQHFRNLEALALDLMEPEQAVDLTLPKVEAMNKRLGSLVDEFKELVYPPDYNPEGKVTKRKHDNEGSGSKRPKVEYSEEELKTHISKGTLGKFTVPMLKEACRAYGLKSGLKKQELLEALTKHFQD

Experiments:
[1] = target: USP14, endogenous (LNCaP cells) (human (endogenous in LNCaP)) (UniProt P54578); test: co-IP; endogenous USP14 immunoprecipitated from LNCaP cells, with or without 4 Gy IR, immunoblot for Ku70
[2] = target: Flag-HA-USP14 (expressed in HEK 293T cells) (human) (UniProt P54578); test: co-IP; HEK 293T cells co-expressing Flag-HA-USP14 and EGFP-Flag-Ku70; IP with anti-HA, immunoblot; lysis buffer 50 mM Tris pH 7.4, 120 mM NaCl, 5 mM EDTA, 0.1% NP40, 1 mM DTT

binding [1]	binding [2]	Substance
binds		Ku70, endogenous (LNCaP cells) (from UniProt P12956 1-609)
	binds	EGFP-Flag-Ku70 (from UniProt P12956 1-609)
